# Experimental data from PubChem BioAssay AID493014 (National Center for Advancing Translational Sciences (NCATS), 2011).
# This is one part of the list. The main result of the screen is listed elsewhere. These columns were measured beside it and carry no call. Most of these compounds were active or inconclusive in the main read-out, so they are no random draw. The note in brackets gives the kind of curve behind each potency; many fits are weak.
# Test: qHTS Assay to Find Inhibitors of Chronic Active B-Cell Receptor Signaling
# Conditions: ABC-DLBCL IkBa-CBG/CBR reporter, luminescence ratio (green luciferase fused to IkBa over red control in TMD8 lymphoma cells), 4 h
# Summary of the method: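 TMD8 ABC-DLBCL cells carrying doxycycline-inducible green luciferase fused to IkappaBalpha plus unfused red luciferase were exposed to compounds (up to 46 uM) for 4 hrs at 37C. Activity came from the overlap-corrected green/red luminescence ratio.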
# [1] = measured here: CBR red luminescence, cell number
SMILES,AC50 [1],AC50 (measured here: IkBa-CBG green luminescence)
CCCNS(=O)(=O)c1ccc(CCC(=O)N2CCCC2)cc1,"11.2 µM [rising, partial curve, poor fit]",–
Nc1nonc1-n1nnc(C(=O)N/N=C/c2cc(Br)cs2)c1-c1ccccc1,"2.24 µM [falling, partial curve, poor fit]",–
COc1ccc(/C=C/C(=O)N2CCN(S(=O)(=O)c3ccccc3Br)CC2)cc1OC,"7.31 µM [falling, partial curve, poor fit]",–
CCn1c(CNc2ccc(F)cc2)nnc1SCC(=O)Nc1ccc(OC)cc1OC,"11.2 µM [falling, partial curve, poor fit]",–
COCc1cc(=O)n2c(-c3ccc(C)cc3)n[nH]c2n1,"8.2 µM [falling, partial curve]",–
CC(=O)c1cnc2cc(-c3ccc(C)cc3)nn2c1C,"5.17 µM [rising, full curve, poor fit]",–
CCOc1ccccc1Nc1sc(C(=O)c2ccc(Cl)cc2)c(N)c1C#N,"3.16 µM [rising, partial curve]",–
COc1ccccc1NC(=S)NC(NC(=O)c1ccco1)C(Cl)(Cl)Cl (centres undefined),"25.9 µM [falling, partial curve, poor fit]",–
Cc1ccc(C(=O)NC=C(Cl)Cl)cc1,"23.1 µM [rising, partial curve, poor fit]",–
COc1cccc(C2C(C(C)=O)=C(O)C(=O)N2CCc2c[nH]c3ccccc23)c1 (centres undefined),"1.12 µM [rising, full curve, poor fit]",–
CC(NC(=O)Nc1ncccn1)(C(F)(F)F)C(F)(F)F,"2.59 µM [rising, full curve, poor fit]",–
COc1ccc(C(=O)NNC(=O)C(Cc2ccc(O)cc2)NC(=O)c2ccccc2NC(=O)c2ccc(OC)cc2)cc1 (centres undefined),"18.4 µM [rising, partial curve, poor fit]",–
CCCN(S(=O)(=O)c1ccc(OCC)cc1)S(=O)(=O)c1cccs1,"4.11 µM [rising, full curve, poor fit]",–
CSc1ccc(CN(C)C(=O)C2CCN(C(=O)Nc3ccccc3)CC2)cc1,"25.9 µM [falling, partial curve]",–
CCN(C(=O)COC(=O)Cc1cccc2ccccc12)C1CCS(=O)(=O)C1 (centres undefined),"20.6 µM [rising, single point]",–
O=C(NCc1ccc(F)cc1)C1CCN(S(=O)(=O)c2ccc3c(c2)OCCCO3)CC1,"2.91 µM [rising, full curve, poor fit]",–
NC(=S)NN=C1c2cc(OCCN3CCOCC3)ccc2-c2ccc(OCCN3CCOCC3)cc21,"5.62 µM [falling, full curve]",–
C/C(N)=C(/C#N)C(=O)COC(=O)CCSc1ccccc1,"1.84 µM [falling, partial curve, poor fit]",–
COc1ccc2[nH]c(=O)c(CN(Cc3ccccc3OC)Cc3nnnn3CC3CCCO3)cc2c1 (centres undefined),"35.5 µM [falling, single point]",–
CCCC1S/C(=N/N=C/c2ccc(C)cc2)N(Cc2ccc(OC)cc2)C1=O (centres undefined),"0.00651 µM [rising, full curve, poor fit]",–

# Sorted by molecular weight (descending): some entries from above
SMILES,AC50 [1],AC50 (measured here: IkBa-CBG green luminescence)
COc1ccc(C(=O)NNC(=O)C(Cc2ccc(O)cc2)NC(=O)c2ccccc2NC(=O)c2ccc(OC)cc2)cc1 (centres undefined),"18.4 µM [rising, partial curve, poor fit]",–
NC(=S)NN=C1c2cc(OCCN3CCOCC3)ccc2-c2ccc(OCCN3CCOCC3)cc21,"5.62 µM [falling, full curve]",–
Nc1nonc1-n1nnc(C(=O)N/N=C/c2cc(Br)cs2)c1-c1ccccc1,"2.24 µM [falling, partial curve, poor fit]",–
O=C(NCc1ccc(F)cc1)C1CCN(S(=O)(=O)c2ccc3c(c2)OCCCO3)CC1,"2.91 µM [rising, full curve, poor fit]",–
CCn1c(CNc2ccc(F)cc2)nnc1SCC(=O)Nc1ccc(OC)cc1OC,"11.2 µM [falling, partial curve, poor fit]",–
CCCNS(=O)(=O)c1ccc(CCC(=O)N2CCCC2)cc1,"11.2 µM [rising, partial curve, poor fit]",–
CC(NC(=O)Nc1ncccn1)(C(F)(F)F)C(F)(F)F,"2.59 µM [rising, full curve, poor fit]",–

# Following part

SMILES,AC50 [1],AC50 (measured here: IkBa-CBG green luminescence)
Cc1cc(C)n2nc(C(=O)Nc3c(C)nn(Cc4ccc(F)cc4)c3C)cc2n1,"3.16 µM [rising, partial curve, poor fit]",–
Cc1onc(-c2c(Cl)cccc2Cl)c1C(=O)NC1C(=O)N2C1SC(C)(C)C2C(=O)O (centres undefined),"35.5 µM [falling, single point]",–
COc1ccccc1N1CCN(C(=O)CCNS(=O)(=O)c2cc(Br)cnc2N)CC1,"35.5 µM [falling, single point]",–
Cc1ccc(CSCC(=O)N/N=C/c2cccc(OC3CSC3)c2)cc1,"3.26 µM [rising, full curve, poor fit]",–
C/C(=N\NC(=O)c1cccc(N/N=C(\C)c2ccncc2)c1)c1ccncc1,"11.2 µM [falling, partial curve]",–
COc1cc([C@H]2c3[nH]c4ccccc4c3C[C@H]3C(=O)N4[C@@H](c5cc(OC)c(OC)c(OC)c5)c5[nH]c6ccccc6c5C[C@H]4C(=O)N23)cc(OC)c1OC,"11.6 µM [rising, partial curve, poor fit]",–
COc1ccc(CN(Cc2ccc(C(=O)O)cc2)C(=S)Nc2cc(C)cc(C)c2)cc1OC,"5.01 µM [falling, partial curve, poor fit]",–
C[C@@H](OC(=O)c1[nH]cnc1C(=O)NCc1ccc(CNC(=O)OC(C)(C)C)cc1)c1ccccc1,–,"3.26 µM [falling, partial curve, poor fit]"
CC(C)OC(=O)c1c(N)n(CCCN2CCOCC2)c2nc3ccccc3nc12,"25.9 µM [falling, partial curve]",–
O=C/C(=C\Nc1ccc(Br)cc1)c1nc2ccccc2o1,"3.55 µM [rising, partial curve, poor fit]",–
CNc1c(N)c(=O)oc2ccccc12,"22.4 µM [falling, partial curve]",–
CC(C)Oc1cc2oc(=O)c3c(c2cc1Cl)CCC3,"18.4 µM [rising, single point]",–
Cc1nnc2sc(SCc3ccccc3Cl)nn2c1=O,"11.2 µM [falling, partial curve]",–
O=C(O)c1c2c(nc3ccccc13)/C(=C/c1ccccc1[N+](=O)[O-])CCC2,"12.6 µM [rising, partial curve]",–
COc1ccccc1N1CCN(C(=O)C2CCN(S(=O)(=O)c3ccc(Cl)cc3)CC2)CC1,"11.2 µM [falling, partial curve, poor fit]",–
Cc1ccc(/C(N)=N/OC(=O)c2ccco2)cc1,"0.651 µM [rising, full curve]",–
O=C(Nc1ccc(N2CCCCCC2)cc1)c1ccccc1Cl,"10 µM [falling, partial curve]",–
CCc1ccccc1NC(=O)CCC(=O)c1cccs1,"31.6 µM [falling, single point]",–
Cc1csc(N(C)C(=O)CSc2nnc(COc3cccc4ccccc34)o2)n1,"0.651 µM [rising, full curve, poor fit]",–
